In doi:10.1101/2024.01.26.577166:
No constants are given. Whether binding was seen depends on the method and setting. For some of these results: Binding calls can cover weak binding; strength is not graded here. For some of these results: Tags and fused reporters may be left off the sequences shown. For some of these results: Binding seen in cells or lysates may run through a third protein.

By UniProt entry, the sequences of proteins in these tests, tags left out. Where a name states a change or a piece, a line headed by the entry shows the natural chain unless it says otherwise.
UniProt Q9LFA5: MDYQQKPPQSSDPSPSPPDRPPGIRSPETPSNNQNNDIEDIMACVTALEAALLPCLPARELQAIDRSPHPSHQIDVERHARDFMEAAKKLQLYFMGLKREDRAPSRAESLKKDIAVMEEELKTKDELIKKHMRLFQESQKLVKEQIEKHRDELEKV
UniProt F4JGZ1: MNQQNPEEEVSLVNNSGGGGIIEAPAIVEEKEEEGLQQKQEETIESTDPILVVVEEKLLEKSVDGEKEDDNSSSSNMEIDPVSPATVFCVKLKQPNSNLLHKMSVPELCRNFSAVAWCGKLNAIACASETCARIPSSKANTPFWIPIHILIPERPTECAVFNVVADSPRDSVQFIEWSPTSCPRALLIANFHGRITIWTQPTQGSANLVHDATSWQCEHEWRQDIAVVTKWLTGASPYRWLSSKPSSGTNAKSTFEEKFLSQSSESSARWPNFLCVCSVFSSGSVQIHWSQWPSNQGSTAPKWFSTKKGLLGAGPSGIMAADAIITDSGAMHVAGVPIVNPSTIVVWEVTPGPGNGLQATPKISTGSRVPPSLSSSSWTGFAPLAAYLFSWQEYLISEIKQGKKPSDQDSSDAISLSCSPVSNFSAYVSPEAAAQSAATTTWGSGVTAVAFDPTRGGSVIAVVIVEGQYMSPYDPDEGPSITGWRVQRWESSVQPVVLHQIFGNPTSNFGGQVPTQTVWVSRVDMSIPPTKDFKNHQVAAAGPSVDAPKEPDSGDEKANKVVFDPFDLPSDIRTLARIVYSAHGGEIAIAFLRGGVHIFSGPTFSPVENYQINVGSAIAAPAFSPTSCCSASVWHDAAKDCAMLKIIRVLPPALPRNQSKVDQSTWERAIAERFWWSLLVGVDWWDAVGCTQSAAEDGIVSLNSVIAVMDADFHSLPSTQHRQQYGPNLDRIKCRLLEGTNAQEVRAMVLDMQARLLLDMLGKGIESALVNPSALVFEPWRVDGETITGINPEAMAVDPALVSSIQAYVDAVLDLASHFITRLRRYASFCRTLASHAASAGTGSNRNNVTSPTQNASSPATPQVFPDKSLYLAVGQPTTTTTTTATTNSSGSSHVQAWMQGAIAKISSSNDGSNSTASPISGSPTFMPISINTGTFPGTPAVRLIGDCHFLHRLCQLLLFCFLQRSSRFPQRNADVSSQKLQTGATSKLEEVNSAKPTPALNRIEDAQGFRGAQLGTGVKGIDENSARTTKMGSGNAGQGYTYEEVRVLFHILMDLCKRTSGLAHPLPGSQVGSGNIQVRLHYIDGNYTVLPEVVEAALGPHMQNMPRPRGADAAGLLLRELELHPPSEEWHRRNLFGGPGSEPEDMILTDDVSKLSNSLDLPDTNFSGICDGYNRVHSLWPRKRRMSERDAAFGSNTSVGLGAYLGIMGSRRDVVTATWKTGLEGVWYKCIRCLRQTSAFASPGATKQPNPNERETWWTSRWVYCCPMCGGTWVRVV
UniProt Q84VW5: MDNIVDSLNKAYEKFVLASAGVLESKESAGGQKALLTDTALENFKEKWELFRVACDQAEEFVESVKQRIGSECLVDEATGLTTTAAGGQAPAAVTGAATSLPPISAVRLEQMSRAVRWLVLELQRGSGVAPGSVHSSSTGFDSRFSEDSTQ
UniProt Q9FT73: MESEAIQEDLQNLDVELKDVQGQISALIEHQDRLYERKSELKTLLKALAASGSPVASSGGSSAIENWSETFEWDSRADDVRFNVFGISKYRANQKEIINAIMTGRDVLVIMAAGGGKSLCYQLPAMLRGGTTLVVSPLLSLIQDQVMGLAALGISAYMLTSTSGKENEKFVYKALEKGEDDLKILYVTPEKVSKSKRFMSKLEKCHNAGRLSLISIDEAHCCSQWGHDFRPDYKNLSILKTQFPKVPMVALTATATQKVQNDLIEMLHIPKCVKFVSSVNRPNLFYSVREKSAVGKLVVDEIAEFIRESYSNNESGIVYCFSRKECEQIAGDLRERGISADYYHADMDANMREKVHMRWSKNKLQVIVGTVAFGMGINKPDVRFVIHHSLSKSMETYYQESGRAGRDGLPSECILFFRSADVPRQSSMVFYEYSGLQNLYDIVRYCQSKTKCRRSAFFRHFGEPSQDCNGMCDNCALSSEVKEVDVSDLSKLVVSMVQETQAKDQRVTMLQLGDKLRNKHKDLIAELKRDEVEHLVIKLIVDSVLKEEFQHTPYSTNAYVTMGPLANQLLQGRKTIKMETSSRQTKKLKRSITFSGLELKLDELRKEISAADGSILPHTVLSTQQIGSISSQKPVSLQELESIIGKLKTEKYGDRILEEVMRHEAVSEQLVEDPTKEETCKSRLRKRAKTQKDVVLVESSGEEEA
UniProt Q94AH9: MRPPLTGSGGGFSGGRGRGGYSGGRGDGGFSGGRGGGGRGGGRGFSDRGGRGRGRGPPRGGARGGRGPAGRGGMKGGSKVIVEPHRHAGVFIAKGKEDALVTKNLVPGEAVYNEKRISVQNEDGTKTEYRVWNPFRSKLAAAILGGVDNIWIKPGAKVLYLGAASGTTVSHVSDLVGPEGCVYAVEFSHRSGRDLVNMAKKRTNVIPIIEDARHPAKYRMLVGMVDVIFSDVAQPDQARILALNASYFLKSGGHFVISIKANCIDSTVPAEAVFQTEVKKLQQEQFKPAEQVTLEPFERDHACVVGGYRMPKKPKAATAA
UniProt Q4V3C1: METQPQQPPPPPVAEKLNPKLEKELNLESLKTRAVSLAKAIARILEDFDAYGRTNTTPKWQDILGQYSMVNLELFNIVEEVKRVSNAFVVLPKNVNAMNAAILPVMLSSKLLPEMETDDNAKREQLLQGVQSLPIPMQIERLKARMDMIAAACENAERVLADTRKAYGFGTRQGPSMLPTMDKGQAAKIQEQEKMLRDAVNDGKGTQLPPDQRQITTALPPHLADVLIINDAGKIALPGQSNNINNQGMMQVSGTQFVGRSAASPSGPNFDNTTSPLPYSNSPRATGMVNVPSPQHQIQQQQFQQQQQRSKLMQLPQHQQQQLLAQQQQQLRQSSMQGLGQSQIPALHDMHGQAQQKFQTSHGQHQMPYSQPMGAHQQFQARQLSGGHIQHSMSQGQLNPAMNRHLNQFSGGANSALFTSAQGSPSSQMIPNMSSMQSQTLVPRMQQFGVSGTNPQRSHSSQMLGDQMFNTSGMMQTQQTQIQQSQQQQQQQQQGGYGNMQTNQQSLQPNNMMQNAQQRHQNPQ
UniProt Q9FMP0: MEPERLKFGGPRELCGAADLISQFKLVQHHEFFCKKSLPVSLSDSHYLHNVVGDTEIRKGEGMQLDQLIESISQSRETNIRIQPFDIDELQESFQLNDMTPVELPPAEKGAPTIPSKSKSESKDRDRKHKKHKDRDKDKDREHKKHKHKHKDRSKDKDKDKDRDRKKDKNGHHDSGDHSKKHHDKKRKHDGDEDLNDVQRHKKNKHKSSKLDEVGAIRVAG
UniProt Q9LUM4: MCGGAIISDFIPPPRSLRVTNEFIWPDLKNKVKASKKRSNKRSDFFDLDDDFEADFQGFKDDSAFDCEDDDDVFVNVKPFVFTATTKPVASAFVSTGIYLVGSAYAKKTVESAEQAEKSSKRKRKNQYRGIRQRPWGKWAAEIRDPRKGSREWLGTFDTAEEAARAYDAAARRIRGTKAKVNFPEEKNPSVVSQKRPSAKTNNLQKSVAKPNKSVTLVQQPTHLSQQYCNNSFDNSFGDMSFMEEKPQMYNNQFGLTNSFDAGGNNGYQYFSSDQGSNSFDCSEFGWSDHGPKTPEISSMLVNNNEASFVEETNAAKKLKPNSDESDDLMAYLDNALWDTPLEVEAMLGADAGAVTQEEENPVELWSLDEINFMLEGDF
UniProt Q9SSA8: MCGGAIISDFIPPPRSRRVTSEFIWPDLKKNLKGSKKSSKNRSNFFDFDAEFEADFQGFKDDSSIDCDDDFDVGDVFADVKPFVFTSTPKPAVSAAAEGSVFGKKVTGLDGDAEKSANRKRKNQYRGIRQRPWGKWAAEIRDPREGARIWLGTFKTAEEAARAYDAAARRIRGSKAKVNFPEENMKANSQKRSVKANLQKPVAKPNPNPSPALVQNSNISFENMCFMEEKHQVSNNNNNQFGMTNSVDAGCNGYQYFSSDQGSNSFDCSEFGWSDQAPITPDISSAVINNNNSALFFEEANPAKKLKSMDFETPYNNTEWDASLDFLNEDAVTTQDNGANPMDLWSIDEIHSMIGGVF

Columns and labels:
[1] = target: AtMED28 fused with the GAL4 DNA-binding domain (pDEST32 bait) (Arabidopsis thaliana) (UniProt Q9LFA5); experiment: two-hybrid
[2] = target: AtMED16 fused with the GAL4 DNA-binding domain (pDEST32 bait) (Arabidopsis thaliana) (UniProt F4JGZ1); experiment: two-hybrid
[3] = target: AtMED32 fused with the GAL4 DNA-binding domain (pDEST32 bait) (Arabidopsis thaliana) (UniProt Q84VW5); experiment: two-hybrid
[4] = target: AtMED34 fused with the GAL4 DNA-binding domain (pDEST32 bait) (Arabidopsis thaliana) (UniProt Q9FT73); experiment: two-hybrid
[5] = target: AtMED36 fused with the GAL4 DNA-binding domain (pDEST32 bait) (Arabidopsis thaliana) (UniProt Q94AH9); experiment: two-hybrid
[6] = target: AtMED8 fused with the GAL4 DNA-binding domain (pDEST32 bait) (Arabidopsis thaliana) (UniProt Q4V3C1); experiment: two-hybrid
[7] = target: AtMED19 fused with the GAL4 DNA-binding domain (pDEST32 bait) (Arabidopsis thaliana) (UniProt Q9FMP0); experiment: two-hybrid
[8] = target: T1, AtMED25 fused to the N-terminus of YFP (rice protoplasts) (Arabidopsis thaliana) (UniProt Q7XYY2); experiment: split reporter
T1 sequence: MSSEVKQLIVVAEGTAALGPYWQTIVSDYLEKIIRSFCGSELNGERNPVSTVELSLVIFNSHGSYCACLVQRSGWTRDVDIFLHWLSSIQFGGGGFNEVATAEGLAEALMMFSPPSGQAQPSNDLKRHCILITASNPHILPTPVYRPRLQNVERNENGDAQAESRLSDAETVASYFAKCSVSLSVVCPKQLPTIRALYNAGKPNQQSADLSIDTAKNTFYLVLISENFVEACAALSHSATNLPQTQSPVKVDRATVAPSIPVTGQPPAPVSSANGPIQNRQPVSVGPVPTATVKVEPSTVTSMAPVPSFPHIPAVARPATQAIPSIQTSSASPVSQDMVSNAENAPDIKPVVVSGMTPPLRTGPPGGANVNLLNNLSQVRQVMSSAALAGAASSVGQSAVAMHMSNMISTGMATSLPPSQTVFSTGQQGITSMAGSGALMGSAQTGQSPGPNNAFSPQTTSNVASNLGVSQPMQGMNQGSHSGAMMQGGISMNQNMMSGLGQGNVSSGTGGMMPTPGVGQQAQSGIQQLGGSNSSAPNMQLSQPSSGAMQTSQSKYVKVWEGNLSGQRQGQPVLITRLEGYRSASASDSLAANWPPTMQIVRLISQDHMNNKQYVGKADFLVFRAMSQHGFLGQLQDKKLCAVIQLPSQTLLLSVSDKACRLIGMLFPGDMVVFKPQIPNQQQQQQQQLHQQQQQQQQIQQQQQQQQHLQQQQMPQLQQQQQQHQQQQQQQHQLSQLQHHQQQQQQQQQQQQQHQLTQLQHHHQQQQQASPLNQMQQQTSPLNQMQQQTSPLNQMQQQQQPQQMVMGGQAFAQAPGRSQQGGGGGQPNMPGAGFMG

[9] = target: T2, AtMED25 fused with the GAL4 DNA binding domain (full-length, pDEST32 bait) (Arabidopsis thaliana) (UniProt Q7XYY2); experiment: two-hybrid
T2 sequence: T1 sequence

Substance | binding [1] | binding [2] | binding [3] | binding [4] | binding [5] | binding [6] | binding [7] | binding [8] | binding [9]
RAP2.2 fused with the GAL4 activation domain (full-length, pDEST22 prey) (from UniProt Q9LUM4 1-379) | no binding | no binding | no binding | no binding | no binding | no binding | no binding |  | 
RAP2.12 fused with the GAL4 activation domain (full-length, pDEST22 prey) (from UniProt Q9SSA8 1-358) | no binding | no binding | no binding | no binding | no binding | no binding | no binding |  | 
SUB1A fused to the C-terminus of YFP (rice protoplasts) (Oryza sativa (rice)) |  |  |  |  |  |  |  | binds | 
SUB1A fused with the GAL4 activation domain (pDEST22 prey) (Oryza sativa (rice)) |  |  |  |  |  |  |  |  | binds
